Screen size: about 360,000 compounds; about 7,500 (2.1%) were called active. This list was built around the results that the source calls inconclusive (neither active nor inactive); the mix of calls is not that of the screen. The call rests on the fitted dose curve; in most records, active means well fitted inhibition curve with a large enough effect; inconclusive means small, poorly fitted or top-dose-only effect, or effect the other way; inactive means flat fitted curve, though single readings scatter. Potencies beside an inconclusive call are fits to weak or partial responses and may not hold up.
assay: Nrf2 qHTS screen for inhibitors; settings: A549 ARE-Fluc reporter, luciferase luminescence, 18-24 h; activity change, negative = inhibition: at 46 µM (top of the series); further: nearly all actives have a fitted effect of over 60% in size
Outline: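 Two sequential reads on A549 ARE_Fluc cells exposed to compound for 18-24 h: a CellTiter-Fluor fluorescence read for viability, then a luciferase luminescence read for Nrf2/ARE activity.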
On the % scale 0 is the no-effect control and ±100 the full control effect; potency means the concentration at half of the fitted maximal effect.

Row | SMILES | Potency | activity change, negative = inhibition
1 | CCOCCCNC(=O)Cn1ncc2c([nH]c3ccccc32)c1=O | inconclusive: 29.1 µM [activator, single point] | –
2 | Cc1ccc(-n2ncc(C(=O)N3CCN(C(=O)c4ccco4)CC3)c2-n2cccc2)cc1 | inconclusive: 18.4 µM [falling, single point] | –
3 | O=C(c1ccco1)N1CCc2[nH]nc(-c3ccc(Cl)cc3)c2C1 | inconclusive: 5.8 µM [falling, partial curve, poor fit] | –
4 | COC(=O)c1c(C)oc(C)c1S(=O)(=O)NCC1CC1 | – | inactive: 3.82%
5 | Cc1cccc(CN(C(=S)Nc2c(C)cccc2C)c2cccnc2)c1 | – | inactive: 0.902%
6 | CCn1nc(C(=O)NNC(=O)c2ccccc2)c2ccccc2c1=O | inconclusive: 20.6 µM [activator, partial curve] | –
7 | CCCNC(=O)c1nnsc1S(=O)(=O)c1ccc(Cl)cc1 | active: 23.1 µM | –
8 | Cn1c(SCc2cccc([N+](=O)[O-])c2)nc2c(c1=O)SCC2 | inconclusive: 23.1 µM [falling, partial curve] | –
9 | COc1cc2nc(=S)n3[nH]c(COc4ccccc4C)nc3c2cc1OC | – | inactive: -10.2%
10 | CC(C)c1ccccc1NC(=O)CSc1n[nH]c(=O)n1C1CC1 | inconclusive: 25.9 µM [falling, single point] | –
11 | Cc1noc(C)c1S(=O)(=O)N(CC(=O)Nc1ccc(C(F)(F)F)cc1)c1ccc(C(C)C)cc1 | active: 16.4 µM | –
12 | O=C(O)c1cc(O)c2c(c1)C(=O)c1cc(O)cc(O)c1C2=O | inconclusive: 20.6 µM [falling, single point] | –
13 | CCCOc1ccc(NC(=O)CC2C(=O)N(CC)C(=S)N2Cc2cccs2)cc1 (stereo not given) | inconclusive: 29.1 µM [falling, single point] | –
14 | CN(C)c1cccc(C(=O)N2CCCC(CCC(=O)N3CCN(c4ccccn4)CC3)C2)c1 (stereo not given) | inconclusive: 18.4 µM [falling, partial curve, poor fit] | –
15 | O=C(Nc1cccnc1)C1CCN(S(=O)(=O)c2cccc3nonc23)CC1 | inconclusive: 29.1 µM [falling, single point] | –
16 | N#CC(=C1CCCC1)c1nc(-c2cc3ccccc3oc2=O)cs1 | inconclusive: 2.91 µM [activator, partial curve] | –
17 | CN1CCN(C(c2ccc(Cl)cc2)c2cc(Cl)c3cccnc3c2O)CC1 (stereo not given) | inconclusive: 29.1 µM [falling, single point] | –
18 | O=[N+]([O-])c1c(NCCCO)cc(Sc2ccc(Cl)cc2)c2nonc12 | – | inactive: 3.46%
19 | Oc1sc(C=Nc2ccc(F)cc2)c2ccccc12 | inconclusive: 3.66 µM [activator, full curve, poor fit] | –
20 | Cc1c(C(=O)Nc2cccc(C(F)(F)F)c2)sc2nc3n(c(=O)c12)CCC3 | – | inactive: -9.9%
21 | O=C(c1cccc(S(=O)(=O)N2CCCC2)c1)c1cccc(S(=O)(=O)N2CCCC2)c1 | active: 8.2 µM | –
22 | CCOc1ccc2nc(NC(=O)c3cc([N+](=O)[O-])ccc3N3CCOCC3)sc2c1 | – | inactive: -23.6%
23 | C=CCOC(=O)C1=C(C)NC(SC)=C(C#N)C1c1ccc(OCC)cc1 (stereo not given) | inconclusive: 23.1 µM [falling, single point] | –
24 | O=C(Cc1ccc(F)cc1)N1CCN=C1SCc1ccc([N+](=O)[O-])cc1 | inconclusive: 11.6 µM [falling, partial curve, poor fit] | –

15 entries from above, sorted by formula weight, descending.
Row | SMILES | Potency | activity change, negative = inhibition
14 | CN(C)c1cccc(C(=O)N2CCCC(CCC(=O)N3CCN(c4ccccn4)CC3)C2)c1 (stereo not given) | inconclusive: 18.4 µM [falling, partial curve, poor fit] | –
21 | O=C(c1cccc(S(=O)(=O)N2CCCC2)c1)c1cccc(S(=O)(=O)N2CCCC2)c1 | active: 8.2 µM | –
13 | CCCOc1ccc(NC(=O)CC2C(=O)N(CC)C(=S)N2Cc2cccs2)cc1 (stereo not given) | inconclusive: 29.1 µM [falling, single point] | –
22 | CCOc1ccc2nc(NC(=O)c3cc([N+](=O)[O-])ccc3N3CCOCC3)sc2c1 | – | inactive: -23.6%
17 | CN1CCN(C(c2ccc(Cl)cc2)c2cc(Cl)c3cccnc3c2O)CC1 (stereo not given) | inconclusive: 29.1 µM [falling, single point] | –
9 | COc1cc2nc(=S)n3[nH]c(COc4ccccc4C)nc3c2cc1OC | – | inactive: -10.2%
18 | O=[N+]([O-])c1c(NCCCO)cc(Sc2ccc(Cl)cc2)c2nonc12 | – | inactive: 3.46%
23 | C=CCOC(=O)C1=C(C)NC(SC)=C(C#N)C1c1ccc(OCC)cc1 (stereo not given) | inconclusive: 23.1 µM [falling, single point] | –
5 | Cc1cccc(CN(C(=S)Nc2c(C)cccc2C)c2cccnc2)c1 | – | inactive: 0.902%
7 | CCCNC(=O)c1nnsc1S(=O)(=O)c1ccc(Cl)cc1 | active: 23.1 µM | –
6 | CCn1nc(C(=O)NNC(=O)c2ccccc2)c2ccccc2c1=O | inconclusive: 20.6 µM [activator, partial curve] | –
8 | Cn1c(SCc2cccc([N+](=O)[O-])c2)nc2c(c1=O)SCC2 | inconclusive: 23.1 µM [falling, partial curve] | –
16 | N#CC(=C1CCCC1)c1nc(-c2cc3ccccc3oc2=O)cs1 | inconclusive: 2.91 µM [activator, partial curve] | –
1 | CCOCCCNC(=O)Cn1ncc2c([nH]c3ccccc32)c1=O | inconclusive: 29.1 µM [activator, single point] | –
19 | Oc1sc(C=Nc2ccc(F)cc2)c2ccccc12 | inconclusive: 3.66 µM [activator, full curve, poor fit] | –

More structures.

Row | SMILES | Potency | activity change, negative = inhibition
25 | S=C(NCc1ccccc1)NCc1ccccc1 | – | inactive: 4.42%
26 | Cc1cc(C)cc(C(=O)Nc2ccc(N3CCN(C(=O)c4ccco4)CC3)cc2)c1 | inconclusive: 20.6 µM [falling, single point] | –
27 | Cc1cccc(N2CCN(C(=O)c3cc4ccc5cccnc5c4[nH]3)CC2)c1C | – | inactive: -1.81%
28 | Cc1nn(C)c(NC(=O)c2ccccc2Cl)c1Br | inconclusive: 20.6 µM [activator, single point] | –
29 | COc1cc(OC)c(NC(=O)C(CC(C)C)N2Cc3ccccc3C2=O)cc1Cl (stereo not given) | – | inactive: -4.65%
30 | CCOc1ccccc1NC(=O)CSc1cn(CC(=O)N2CCCCCC2)c2ccccc12 | – | inactive: -20.1%
31 | Cc1ccc(CS(=O)(=O)CCC(=O)NCC2CCCO2)cc1 (stereo not given) | inconclusive: 0.058 µM [falling, full curve, poor fit] | –
32 | CC(C)(C)c1csc(NC(=O)c2ccc3nccnc3c2)n1 | inconclusive: 6.51 µM [activator, single point] | –
33 | Cc1ccc(NC(=O)CCN2C(=O)c3ccccc3Sc3ncccc32)cc1 | – | inconclusive: 30.2% [activator]
34 | Cc1ccc(CSc2ncn(-c3ccccc3)n2)cc1 | – | inactive: 21.9%
35 | O=C(NC1CCCC1)C1CCCN(C(=O)Nc2ccccc2)C1 (stereo not given) | inconclusive: 25.9 µM [falling, partial curve, poor fit] | –
36 | COc1ccccc1CCNC(=O)c1cc(-c2ccncc2)nc2ccc(Br)cc12 | inconclusive: 16.4 µM [falling, partial curve, poor fit] | –
37 | O=C(NC(=S)N(CC1CCC1)CC1CCCO1)c1cccc([N+](=O)[O-])c1 (stereo not given) | inconclusive: 18.4 µM [falling, single point] | –
38 | Cc1cc(C)n(-c2cc(C(C)(C)C)nc3c(-c4ccccc4)cnn23)n1 | inconclusive: 6.51 µM [activator, full curve] | –
39 | Cc1ccc(Cl)cc1NC(=S)NCCCSC1CCCCC1 | active: 25.9 µM | –
40 | COc1ccc(/C=N/n2c(C)cc(C)cc2=O)cc1 | inconclusive: 29.1 µM [activator, single point] | –
41 | O=C(Nc1nc2ccccc2c(=O)[nH]1)c1ccccc1SCc1ccccc1 | – | inactive: 0.103%
42 | COc1cc(CNc2ccc(S(N)(=O)=O)cc2)ccc1OCc1ccccc1F | inconclusive: 32.6 µM [falling, partial curve, poor fit] | –
43 | CCOC(=O)c1sc2nc3n(c(=O)c2c1C)CCC3 | inconclusive: 23.1 µM [activator, single point] | –
44 | O=c1c2ccccc2nc(SCc2ccccc2)n1CC1CCCO1 (stereo not given) | – | inactive: -10.7%
45 | NC(=O)c1cc2ccccc2o/c1=N/NC(=O)c1cccc(Cl)c1 | inconclusive: 6.51 µM [falling, full curve] | –
46 | Cc1ccc2cc(CCNC(=O)c3ccco3)c(=O)[nH]c2c1C | inconclusive: 1.16 µM [activator, full curve] | –
47 | COc1ccc(-c2nnc3n2N=C(c2c(OC)cccc2OC)CS3)c(OC)c1 | – | inactive: -14.3%
48 | CSc1ccccc1NC(=O)c1ccc(Br)o1 | inconclusive: 11.6 µM [activator, partial curve] | –

Row | SMILES | Potency | activity change, negative = inhibition
49 | O=[N+]([O-])c1cccc(C2=NC(c3ccccc3)CO2)c1 (stereo not given) | inconclusive: 32.6 µM [activator, single point] | –
50 | COc1cccc(-c2noc(-c3cc4ccccc4oc3=O)n2)c1OC | inconclusive: 18.4 µM [activator, single point] | –
51 | COc1ccc(CN(CCC(c2ccccc2)c2ccco2)C(=O)c2ccco2)cc1 (stereo not given) | inconclusive: 20.6 µM [falling, single point] | –
52 | Cc1ccccc1OCC(=O)Nc1ccc(S(=O)(=O)Nc2ccccn2)cc1 | inconclusive: 8.2 µM [falling, partial curve] | –
53 | CN(C)S(=O)(=O)c1cccc(C(=O)OCC(=O)Nc2sccc2C(N)=O)c1 | inconclusive: 7.31 µM [falling, partial curve, poor fit] | –
54 | COc1ccc(-c2cc(C(=O)Nc3c(C)nn(Cc4ccccc4)c3C)no2)cc1 | inconclusive: 13 µM [falling, partial curve, poor fit] | –
55 | NNc1nnc2c3cc(F)ccc3n(Cc3ccccc3)c2n1 | inconclusive: 9.2 µM [falling, single point] | –
56 | Cc1cccc(OC(C)C(=O)N/N=C\c2ccncc2)c1 (stereo not given) | inconclusive: 9.2 µM [falling, partial curve, poor fit] | –
57 | O=C(Nc1cnc2ccccc2c1)C1COc2ccccc2O1 (stereo not given) | inconclusive: 9.2 µM [activator, partial curve] | –
58 | CCCCCCCCC(NC(=O)c1ccc(C#N)cc1)C(=O)NCCC (stereo not given) | inconclusive: 23.1 µM [activator, single point] | –
59 | COc1ccc(OC)c(CCNc2nc3cc(OC)c(OC)cc3c3nc(-c4cccnc4)nn23)c1 | – | inactive: 9.15%
60 | CCCN1CCc2c(sc(NC(=S)NC(=O)c3ccccc3)c2C#N)C1 | inconclusive: 18.4 µM [activator, single point] | –
61 | CCCCS/C(=C(/C#N)C(N)=O)c1cc2c([nH]1)CCCC2 | – | inactive: -10.8%
62 | CCc1nn2c(N(C)CCO)cc(C)nc2c1-c1ccc(F)cc1 | inconclusive: 16.4 µM [falling, partial curve, poor fit] | –
63 | Cc1ccc(NC(=O)c2ccc(OC(=O)c3ccco3)cc2)cc1 | inconclusive: 5.8 µM [activator, full curve] | –
64 | COc1cccc(Cc2n[nH]c(=S)n2Cc2ccco2)c1 | inconclusive: 25.9 µM [falling, partial curve, poor fit] | –
65 | CC(=O)N1CCN(CC(=O)Nc2ccc(Cl)c(S(=O)(=O)N(C)C)c2)CC1 | inconclusive: 20.6 µM [falling, single point] | –
66 | Cc1ccc(C)c(N2CCN(C(=O)NCc3noc4ccccc34)CC2)c1 | inconclusive: 32.6 µM [falling, single point] | –
67 | CC1(C(=O)OCC(=O)Nc2ccc3ccccc3c2)CC1(Cl)Cl (stereo not given) | inconclusive: 25.9 µM [falling, single point] | –
68 | CCS(=O)(=O)NCCc1cc2cc(C)c(C)cc2[nH]c1=O | – | inactive: -1.49%
69 | COc1ccc(-n2c(SCC(=O)N3CCCCC3)nc3ccccc3c2=O)cc1 | – | inactive: -5.28%
70 | COc1cccc(CN2CC(C(=O)NCc3ccc(C)c(F)c3)CCC2=O)c1 (stereo not given) | inconclusive: 4.11 µM [activator, single point] | –
